Measurements reported in PubChem BioAssay AID652243 (Drosophila RNAi Screening Center, 2013)
Test: 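Fly genes required for human androgen receptor driven transcription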 (primary screen). Cells: Drosophila S2R+ cells. Reagents: long dsRNA against Drosophila genes. Time to read-out: 72 h (48 h, then 24 h hormone). Treatment: synthetic androgen R1881 at 10 nM for 24 h. Measured: 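Firefly light from an androgen-responsive reporter and Renilla control light per well, raw and unnormalised, for each of two replicates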. Reading the numbers: firefly reporter light: higher = more light from androgen-responsive reporter; Renilla control light: higher = more constitutive control signal (cell number, transfection). Rule for the call: 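Across duplicate plates, a knock-down whose log firefly/Renilla ratio shifted a set fold down or up from the GFP/LacZ control mean was a hit; the downward cut appears as both 1.5 and 3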. Meaning of the calls: active = hit: reporter lowered or raised; inactive = no hit.
In all, the deposit lists about 24,000 reagents; this is an unselected part of those with a known target gene and a result. In the full data, 246 (1%) are marked active. 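Plates not normalised; calls are printed but the firefly/Renilla ratio behind them is not deposited; fold cut for lowering reported inconsistently.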 The raw values are shown without normalisation. Reagents against one gene are numbered here. A plus sign joins genes that one reagent is predicted to hit. The record does not give: the amount of reagent.

| gene | reagent no. | firefly reporter light, replicate 1 | firefly reporter light, replicate 2 | Renilla control light, replicate 1 | Renilla control light, replicate 2 | Outcome |
| --- | --- | --- | --- | --- | --- | --- |
| CG8500 (GeneID 41203) | 1 | 1.64e5 | 1.92e5 | 2.89e6 | 3.23e6 | inactive |
| CG8500 (GeneID 41203) | 2 | 6.33e5 | 3.70e5 | 9.00e5 | 5.63e5 | inactive |
| RpL4 (GeneID 43349) | 1 | 41769 | 47080 | 2.99e5 | 3.05e5 | inactive |
| RpL4 (GeneID 43349) | 2 | 2.50e5 | 1.86e5 | 1.15e6 | 3.11e5 | inactive |
| spd-2 (GeneID 39850) | 1 | 36479 | 32854 | 3.78e5 | 2.36e5 | inactive |
| spd-2 (GeneID 39850) | 2 | 2.73e5 | 2.43e5 | 5.18e5 | 5.40e5 | inactive |
| pncr008:3L (retired record) (GeneID 3771817) | 1 | 5.61e5 | 5.98e5 | 1.42e6 | 1.69e6 | inactive |
| pncr008:3L (retired record) (GeneID 3771817) | 2 | 8.85e5 | 6.23e5 | 1.89e6 | 1.47e6 | inactive |
| CG10730 (GeneID 35291) | 1 | 81761 | 89291 | 1.07e6 | 1.34e6 | inactive |
| CG10730 (GeneID 35291) | 2 | 8.48e5 | 8.86e5 | 1.10e6 | 1.14e6 | inactive |
| CG33635 (GeneID 3772540) | 1 | 5.50e5 | 7.72e5 | 1.72e6 | 1.82e6 | inactive |
| rut (GeneID 32406) | 1 | 5.48e5 | 8.71e5 | 1.75e6 | 2.35e6 | inactive |
| rut (GeneID 32406) | 2 | 5.41e5 | 5.45e5 | 1.35e6 | 1.54e6 | inactive |
| CG1440 (GeneID 31776) | 1 | 4.45e5 | 4.45e5 | 3.42e6 | 3.67e6 | inactive |
| side-IV + asRNA:CR17025 | 1 | 1.66e5 | 1.65e5 | 2.75e6 | 2.36e6 | inactive |
| side-IV + asRNA:CR17025 | 2 | 2.19e5 | 1.63e5 | 3.64e6 | 1.87e6 | inactive |
| Ir94h (GeneID 42769) | 1 | 2.14e5 | 2.77e5 | 2.55e6 | 2.60e6 | inactive |
| ENGase (GeneID 32726) | 1 | 6.12e5 | 4.94e5 | 2.71e6 | 4.11e6 | inactive |
| ENGase (GeneID 32726) | 2 | 3.93e5 | 2.94e5 | 2.99e6 | 2.61e6 | inactive |
| TBC1D23 (GeneID 33289) | 1 | 92311 | 1.35e5 | 8.60e5 | 7.85e5 | inactive |
| TBC1D23 (GeneID 33289) | 2 | 7.10e5 | 6.94e5 | 1.09e6 | 1.11e6 | inactive |
| Rae1 (GeneID 37467) | 1 | 8.21e5 | 6.29e5 | 1.85e6 | 2.16e6 | inactive |
| CG4988 (GeneID 34586) | 1 | 3.11e5 | 2.29e5 | 1.72e6 | 1.69e6 | inactive |
| CG15387 (GeneID 33403) | 1 | 1.01e5 | 96493 | 1.05e6 | 6.99e5 | inactive |
| Nse1 (GeneID 33938) | 1 | 9.84e5 | 1.23e6 | 1.58e6 | 1.80e6 | inactive |
| CG9514 (GeneID 32418) | 1 | 4.56e5 | 5.65e5 | 2.97e6 | 3.27e6 | inactive |
| CG9514 (GeneID 32418) | 2 | 3.51e5 | 3.88e5 | 2.96e6 | 3.32e6 | inactive |
| CG9514 (GeneID 32418) | 3 | 1.05e6 | 7.75e5 | 1.11e6 | 1.00e6 | inactive |
| SMSr (GeneID 38823) | 1 | 7.78e5 | 4.91e5 | 1.24e6 | 1.32e6 | inactive |
| SMSr (GeneID 38823) | 2 | 1.86e5 | 1.17e5 | 1.94e6 | 1.32e6 | inactive |
| RpS20 (GeneID 42464) | 1 | 1.75e5 | 1.69e5 | 1.92e6 | 1.42e6 | inactive |
| CG14695 (GeneID 41314) | 1 | 1.38e5 | 1.90e5 | 1.54e6 | 2.20e6 | inactive |
| ix (GeneID 45881) | 1 | 61343 | 60891 | 8.47e5 | 8.72e5 | active |
| ix (GeneID 45881) | 2 | 6.45e5 | 3.86e5 | 6.26e5 | 6.01e5 | inactive |
| Rpt2 (GeneID 42828) | 1 | 72134 | 69502 | 3.91e5 | 3.50e5 | inactive |
| Rpt2 (GeneID 42828) | 2 | 3.51e5 | 3.52e5 | 3.16e5 | 3.91e5 | inactive |
| TwdlQ (GeneID 43214) | 1 | 9.21e5 | 1.20e6 | 1.41e6 | 1.62e6 | inactive |
| TwdlQ (GeneID 43214) | 2 | 2.90e5 | 2.21e5 | 6.41e5 | 6.94e5 | inactive |
| COX6AL2 (GeneID 40066) | 1 | 2.01e5 | 2.28e5 | 2.46e6 | 2.48e6 | inactive |
| Fuca (GeneID 3772574) | 1 | 2.43e5 | 1.72e5 | 2.20e6 | 1.85e6 | inactive |

An excerpt from above, limited to “firefly reporter light, replicate 2”.
CG4988 (GeneID 34586): 2.29e5
CG15387 (GeneID 33403): 96493
Nse1 (GeneID 33938): 1.23e6
CG9514 (GeneID 32418) #1: 5.65e5
CG9514 (GeneID 32418) #2: 3.88e5
